PubChem BioAssay AID720505 – Drosophila RNAi Screening Center – 2013
Aim: 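Knock-downs that reduce calcium influx once internal stores are emptied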 (primary screen). Cells: Drosophila S2R+ cells. Reagents: long dsRNA against Drosophila genes. Treatment: thapsigargin (2 µM) in calcium-free buffer to empty internal stores, then 2 mM calcium added back. Measured: 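Fluo-4 signal in 384-well plates read on a FLIPR after thapsigargin (2 µM, calcium-free) store depletion and 2 mM calcium add-back; unnormalised mean endpoint per well; screen run twice, selected wells retested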. Scale: calcium signal: higher = more calcium entry after store depletion. Hit rule: 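About 1500 genes called as lowering calcium entry, by varying amounts, judged against per-plate control wells with STIM1 as positive and Rho1 as negative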. Calls: active = called as lowering calcium entry; inactive = not called.
In all, the deposit lists about 20,000 reagents; shown is a random part of those with a known target gene and a result. Of all reagents, about 2,100 (10%) got an active call. 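Raw plate signals without normalisation; calls rest on control-based scores that were not deposited; replicate 2 separates called from uncalled poorly.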 No sequences are given here. Not stated in the record: the amount of reagent, the time to read-out.

no.	Gene	amplicon	calcium signal, replicate 1	calcium signal, replicate 2	call
1	CG6231	DRSC15997	174	188	inactive
2	RpS19a	DRSC20281	66	83.2	active
3	Buffy	DRSC05957	124	231	inactive
4	CG5024	DRSC15698	194	154	inactive
5	Cyp12a4	DRSC16620	188	147	inactive
6	Sec10	DRSC17053	146	166	inactive
7	Patronin	DRSC06756	177	146	inactive
8	Patronin	DRSC06757	190	135	inactive
9	Patronin	DRSC06994	186	117	inactive
10	blow	DRSC07586	156	98.2	inactive
11	CG7332	DRSC20038	166	161	inactive
12	CG32639	DRSC18972			inactive
13	CG33098	DRSC22903	118	188	inactive
14	CG17786	DRSC15270	188	160	inactive
15	CG12355	DRSC09381	114	99	inactive
16	CG12355	DRSC09883	107	126	inactive
17	Cyt-b5	DRSC07392	170	89.2	inactive
18	Npc2g	DRSC14296	137	130	inactive
19	l(2)gd1	DRSC02773	106	124	inactive
20	CG8517	DRSC07205	178	203	inactive

No new results follow: entries from further up.
no.	Gene	amplicon	calcium signal, replicate 1	calcium signal, replicate 2	call
7	Patronin	DRSC06756	177	146	inactive
8	Patronin	DRSC06757	190	135	inactive
9	Patronin	DRSC06994	186	117	inactive
10	blow	DRSC07586	156	98.2	inactive
11	CG7332	DRSC20038	166	161	inactive
12	CG32639	DRSC18972			inactive

The listing continues.
no.	Gene	amplicon	calcium signal, replicate 1	calcium signal, replicate 2	call
21	CG15756	DRSC19721	94.1	78.8	inactive
22	Lapsyn	DRSC04249	155	83.5	inactive
23	PIG-O	DRSC06123	119	88.9	inactive
24	CG13251	DRSC11699	112	132	inactive
25	CG11345	DRSC08176	59.6	70.4	inactive
26	stas	DRSC20104	144	167	inactive
27	CG14464	DRSC07760	91.5	141	inactive
28	beat-IIIa	DRSC01575	173	86	inactive
29	beat-IIIa	DRSC01577	151	97.4	inactive
30	beat-IIIa	DRSC02178	81.5	182	inactive
31	SMC2	DRSC07544	131	145	inactive
32	CG32202	DRSC09989	105	199	inactive
33	mRRF2	DRSC16143	77.4	90.1	inactive
34	CG11585	DRSC19410	78.8	135	inactive
